Earlier results in patent US20050221475A1, “Cell culture procedures for inducing a neuronal phenotype in insect cells” (priority 2004, published 2005).
For at least one compound, name, drawing or mass did not settle the structure.

Tested on: neuronal cell cultures from rat embryos
Details: low dose, 1 μM; cited from earlier work

COc1ccc(C(=O)O[C@H]2CC[C@@]3(C)[C@@H]4CC[C@H]5[C@]6(O)C[C@H](O)[C@@]7(O)[C@@H](CN8C[C@@H](C)CC[C@H]8[C@@]7(C)O)[C@]6(O)C[C@@]53O[C@]24O)cc1OC [veratridine]
effect on survival: increasing their survival
